These are yes or no findings as the source states them, for the method shown. In cells and extracts the contact can be indirect. Binding calls can cover weak binding; strength is not graded here. Tags and fused reporters may be left off the sequences shown. Each block holds one molecule with its values, some of them ahead of it.
Columns and labels:
[1] = target: T1, mGrn-Flag (mouse) (UniProt P28798); assay: co-IP; HEK293 cells transiently co-transfected with Notch1-ECD-V5 or Notch1-ICD-V5 and progranulin-Flag (human proteins; repeated with the mouse proteins); lysate supernatants; IP with anti-Flag or anti-V5 on Immunosorb A overnight at 4 °C; immunoblot with anti-V5 and anti-Flag
T1 sequence: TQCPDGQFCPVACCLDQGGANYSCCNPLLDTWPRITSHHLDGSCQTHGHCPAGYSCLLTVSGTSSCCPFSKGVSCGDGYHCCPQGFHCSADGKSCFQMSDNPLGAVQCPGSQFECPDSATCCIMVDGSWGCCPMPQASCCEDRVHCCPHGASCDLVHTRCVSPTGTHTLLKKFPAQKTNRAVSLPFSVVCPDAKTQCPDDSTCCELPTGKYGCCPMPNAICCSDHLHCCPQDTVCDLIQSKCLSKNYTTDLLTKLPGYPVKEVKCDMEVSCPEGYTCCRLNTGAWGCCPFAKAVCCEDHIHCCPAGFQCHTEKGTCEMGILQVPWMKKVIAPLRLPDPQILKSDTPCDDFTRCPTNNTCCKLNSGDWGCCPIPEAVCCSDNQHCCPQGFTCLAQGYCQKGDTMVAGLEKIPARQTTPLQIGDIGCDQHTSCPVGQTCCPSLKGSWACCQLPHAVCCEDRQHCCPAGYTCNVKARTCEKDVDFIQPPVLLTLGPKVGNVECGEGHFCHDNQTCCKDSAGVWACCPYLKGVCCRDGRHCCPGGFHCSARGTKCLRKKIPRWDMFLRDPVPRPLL

[2] = target: mNotch1 ECD-V5 (mouse); assay: as above

- binding [1]: binds
Molecule: mNotch1 ECD-V5 (mouse) (domain or fragment)

- binding [2]: binds
B1: mGrn-Flag (protein, UniProt P28798 18-589)
chain: T1 sequence

Source: paper PMC5075406
